The list is a part of this screen's results and no random one: it gathers tests that were run many times, whatever their T/C, doses with no T/C, and many T/C values between a quarter and a half above the control. Other doses and runs of a compound stand elsewhere. T/C: endpoint of the treated group in % of that of the vehicle group. Some doses have a count of surviving animals in place of a T/C: the source holds a T/C of zero for them, seemingly a mark for toxic or unscored doses. Some survivor counts are full or nearly so, which does not show that the dose was tolerated: the source hardly ever lists a survival T/C far under the control, and the zero likely stands for such cases as well. Survivors were counted at the toxicity check, usually on the fifth day, unless a day is given; later deaths do not show. Schedule codes are those of the source, read here as Q, the interval in days (D) or hours (H), X, the number of doses. Some entries hold several experiments; their values stand side by side, smallest first. Where survival is the endpoint, the PubChem record calls one and a half times the control and up active, and a quarter to a half above the control has no call in these data; cut-offs in other NCI protocols can differ. Some T/C values carry the count of animals alive at the toxicity check (mostly the fifth day); where none is given, no animal had died by that day.
System: BDF1 mice, B16 melanoma ip, median survival T/C
Assay: NCI In Vivo Anticancer Drug Screen. Data for tumor model B16 Melanoma (intraperitoneal) in B6D2F1 (BDF1) mice
Settings: T/C endpoint: median survival time, higher T/C = longer survival
Method in brief: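 Tumor-bearing mice received test compound or vehicle. Survival or tumor size was then measured in both groups. The treated-group figure was divided by the control-group figure.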

[1] = dose: 200.0 mg/kg/injection, schedule: Q04DX003 (ip), vehicle: Klucel (hydroxypropylcellulose) (HPC)
[2] = dose: 50.0 mg/kg/injection, schedule: Q01DX009 (ip), vehicle: saline
[3] = dose: 50.0 mg/kg/injection, schedule: Q04DX003 (ip), vehicle: Klucel (hydroxypropylcellulose) (HPC)
[4] = dose: 8.0 mg/kg/injection, schedule: Q01DX009 (ip), vehicle: saline with Tween-80
[5] = dose: 100.0 mg/kg/injection, schedule: Q01DX009 (ip), vehicle: saline with Tween-80
[6] = dose: 200.0 mg/kg/injection, schedule: Q01DX009 (ip), vehicle: saline with Tween-80
[7] = dose: 400.0 mg/kg/injection, schedule: Q01DX009 (ip), vehicle: saline with Tween-80
[8] = dose: 200.0 mg/kg/injection, schedule: Q04DX003 (ip), vehicle: saline
[9] = dose: 100.0 mg/kg/injection, schedule: Q01DX009 (ip), vehicle: Klucel (hydroxypropylcellulose) (HPC)
[10] = dose: 200.0 mg/kg/injection, schedule: Q01DX009 (ip), vehicle: Klucel (hydroxypropylcellulose) (HPC)
[11] = dose: 2.0 mg/kg/injection, schedule: Q01DX009 (ip), vehicle: saline with Tween-80
[12] = dose: 4.0 mg/kg/injection, schedule: Q01DX009 (ip), vehicle: saline with Tween-80
[13] = dose: 400.0 mg/kg/injection, schedule: Q01DX009 (ip), vehicle: Klucel (hydroxypropylcellulose) (HPC)

## Cc1ccc(S(=O)(=O)N(CCCCN(S(=O)(=O)c2ccc(C)cc2)S(=O)(=O)c2ccc(C)cc2)S(=O)(=O)c2ccc(C)cc2)cc1
[1]
  survivor count: 9 of 10

## CC(=O)OCC1OC(n2cnc3c(=S)nc(N)[nH]c32)C(OC(C)=O)C1OC(C)=O (configuration not stated)
[2]
  survivor count: 10 of 10

## Cc1c(C)c([N+](=O)[O-])c(Br)c(C)c1[N+](=O)[O-]
[3]
  survivor count: 10 of 10
dose: 400.0 mg/kg/injection, schedule: Q04DX003 (ip), vehicle: Klucel (hydroxypropylcellulose) (HPC)
  survivor count: 10 of 10

## CC(O)C1(O)C(O)CC(OC2c3cc4c(c(O)c3[C@@H]3C[C@@]2(C)OC32C=c3cc[nH]c3=N2)C(=O)c2cccc(O)c2C4=O)OC1C (some centres not stated)
[4]
  T/C: 131 % of control
dose: 32.0 mg/kg/injection, schedule: Q01DX009 (ip), vehicle: saline with Tween-80
  T/C: 134 % of control

## CC1OC(OC2CC(O)(C(=O)CO)Cc3c(O)c4c(c(O)c32)C(=O)c2ccccc2C4=O)CC(N)C1O (configuration not stated)
dose: 0.19 mg/kg/injection, schedule: Q01DX001 (ip), vehicle: water
  T/C: 130 % of control
dose: 0.38 mg/kg/injection, schedule: Q01DX001 (ip), vehicle: water, evaluated on day 50
  T/C: 114 % of control
dose: 0.38 mg/kg/injection, schedule: Q01DX001 (ip), vehicle: water, evaluated on day 60
  T/C: 164, 166, 173 % of control
dose: 0.75 mg/kg/injection, schedule: Q01DX001 (ip), vehicle: water, evaluated on day 50
  T/C: 110 % of control
dose: 0.75 mg/kg/injection, schedule: Q01DX001 (ip), vehicle: water, evaluated on day 60
  T/C: 141, 195, 209 % of control
dose: 1.5 mg/kg/injection, schedule: Q01DX001 (ip), vehicle: water, evaluated on day 50
  T/C: 105 % of control
dose: 1.5 mg/kg/injection, schedule: Q01DX001 (ip), vehicle: water, evaluated on day 60
  T/C: 250 and 268 % of control
dose: 1.5 mg/kg/injection, schedule: Q01DX001 (ip), vehicle: water
  survivor count: 10 of 10
dose: 3.0 mg/kg/injection, schedule: Q01DX001 (ip), vehicle: water
  survivor count: 6 of 10
dose: 6.0 mg/kg/injection, schedule: Q01DX001 (ip), vehicle: water
  survivor count: 1 of 10, 9 of 10, 10 of 10
dose: 216.0 micrograms/kg/injection, schedule: Q01DX004 (ip), vehicle: other
  T/C: 133 % of control
dose: 216.0 micrograms/kg/injection, schedule: Q04DX003 (ip), vehicle: water
  T/C: 149 % of control
dose: 360.0 micrograms/kg/injection, schedule: Q01DX004 (ip), vehicle: other
  T/C: 126 % of control
dose: 1000.0 micrograms/kg/injection, schedule: Q01DX004 (ip), vehicle: other
  survivor count: 10 of 10

## CCC1=C(c2cc(Cl)c3ccccc3c2OCC(=O)O)OC(CC)(C(=O)c2cc(Cl)c3ccccc3c2OCC(=O)O)CC1 (configuration not stated)
dose: 400.0 mg/kg/injection, schedule: Q04DX003 (ip), vehicle: saline with Tween-80
  survivor count: 7 of 10

## Nc1nc(-c2ccccc2)c(Br)c(=O)[nH]1
[5]
  T/C: 137 % of control
[6]
  T/C: 132 % of control

## COc1cccc2c1C(=O)c1c(O)c3c(c(O)c1C2=O)CC(O)(C(C)=O)CC3OC1CC(NC(=O)C(CCCCN)NC(=O)C2CCCN2)C(O)C(C)O1 (configuration not stated)
dose: 160.0 mg/kg/injection, schedule: Q01DX001 (ip), vehicle: water
  survivor count: 3 of 10
dose: 320.0 mg/kg/injection, schedule: Q01DX001 (ip), vehicle: water
  survivor count: 1 of 10

## CNC(=S)N/N=C/c1ccc([N+](=O)[O-])s1
[7]
  survivor count: 10 of 10

## C=CCOCC(O)CN(C)CCCC (configuration not stated)
[3]
  survivor count: 10 of 10
dose: 100.0 mg/kg/injection, schedule: Q04DX003 (ip), vehicle: Klucel (hydroxypropylcellulose) (HPC)
  survivor count: 10 of 10
[1]
  survivor count: 0 of 10
[8]
  survivor count: 2 of 10

## CCCCOB(/C=C/Sc1ccccc1)OCCCC
[9]
  survivor count: 10 of 10
[10]
  survivor count: 5 of 10

## C/C(=N\[N+](C)(C)C)c1ccc(Br)cc1
dose: 150.0 mg/kg/injection, schedule: Q01DX009 (ip), vehicle: saline
  survivor count: 6 of 10
dose: 225.0 mg/kg/injection, schedule: Q01DX009 (ip), vehicle: saline
  survivor count: 0 of 10
dose: 335.0 mg/kg/injection, schedule: Q01DX009 (ip), vehicle: saline
  survivor count: 1 of 10

## CN(N=O)C(=O)Nc1c[nH]c(=O)[nH]c1=O
[11]
  T/C: 126 % of control
[12]
  T/C: 141 % of control
dose: 12.5 mg/kg/injection, schedule: Q01DX009 (ip), vehicle: saline
  T/C: 138 % of control
[2]
  survivor count: 6 of 6

## CC[CH2][Sn]([Cl])([Cl])[CH2]CC
dose: 1.0 mg/kg/injection, schedule: Q01DX009 (ip), vehicle: saline with Tween-80
  survivor count: 6 of 6
[11]
  survivor count: 6 of 6
[12]
  survivor count: 5 of 6
dose: 4.0 mg/kg/injection, schedule: Q01DX009 (ip), vehicle: saline
  survivor count: 6 of 10 and 9 of 10
[4]
  survivor count: 0 of 6

## c1cc2ccc3ccc(C4CO4)c4ccc(c1)c2c34 (configuration not stated)
dose: 50.0 mg/kg/injection, schedule: Q01DX009 (ip), vehicle: Klucel (hydroxypropylcellulose) (HPC)
  survivor count: 10 of 10

## CC[S][Hg][Cl]
dose: 6.0 mg/kg/injection, schedule: Q04DX003 (ip), vehicle: saline with Tween-80
  survivor count: 10 of 10
dose: 12.5 mg/kg/injection, schedule: Q04DX003 (ip), vehicle: saline with Tween-80
  survivor count: 6 of 10
dose: 25.0 mg/kg/injection, schedule: Q04DX003 (ip), vehicle: saline with Tween-80
  survivor count: 4 of 10

## CC(=O)N(C(C)=O)c1ccc(N=Nc2ccccc2C)cc1C
[9]
  survivor count: 10 of 10
[13]
  survivor count: 10 of 10

## O=C(Nc1ccccc1C(F)(F)F)C(c1ccccc1)c1ccccc1
[9]
  survivor count: 10 of 10
[10]
  survivor count: 10 of 10
[13]
  survivor count: 10 of 10

## Cc1cc(N(CCCl)CCCl)ccc1C=Nc1ccccc1C(=O)O
dose: 25.0 mg/kg/injection, schedule: Q01DX009 (ip), vehicle: saline with Tween-80
  T/C: 134 % of control
dose: 50.0 mg/kg/injection, schedule: Q01DX009 (ip), vehicle: saline with Tween-80
  T/C: 125 % of control [9 of 10 alive on day 9]
[5]
  T/C: 148 % of control
[6]
  T/C: 135 % of control [8 of 10 alive on day 9]
[7]
  survivor count: 0 of 10 on day 9

## CC1C=CC(C(N)C(=O)O)O1 (configuration not stated)
[2]
  survivor count: 6 of 6

## CCN(CC)CCCC(C)NC/C=C/CNC(C)CCCN(CC)CC (configuration not stated)
[2]
  survivor count: 5 of 10

## C1=CCOCOC1
dose: 100.0 mg/kg/injection, schedule: Q04DX003 (ip), vehicle: saline
  survivor count: 6 of 10
[8]
  survivor count: 0 of 10
dose: 400.0 mg/kg/injection, schedule: Q04DX003 (ip), vehicle: saline
  survivor count: 0 of 10

## CC(=O)[S][Pb]([c]1ccccc1)([c]1ccccc1)[c]1ccccc1
dose: 4.0 mg/kg/injection, schedule: Q01DX009 (ip), vehicle: Klucel (hydroxypropylcellulose) (HPC)
  survivor count: 0 of 10
[12]
  survivor count: 9 of 10
dose: 5.9 mg/kg/injection, schedule: Q01DX009 (ip), vehicle: Klucel (hydroxypropylcellulose) (HPC)
  survivor count: 0 of 10
dose: 5.9 mg/kg/injection, schedule: Q01DX009 (ip), vehicle: saline with Tween-80
  survivor count: 9 of 10
dose: 9.0 mg/kg/injection, schedule: Q01DX009 (ip), vehicle: Klucel (hydroxypropylcellulose) (HPC)
  survivor count: 0 of 10
dose: 9.0 mg/kg/injection, schedule: Q01DX009 (ip), vehicle: saline with Tween-80
  survivor count: 9 of 10

## O=C(C(=O)c1ccc(Br)cc1)c1ccc(Br)cc1
[9]
  survivor count: 8 of 10
[10]
  survivor count: 10 of 10
[13]
  survivor count: 10 of 10

Source: PubChem BioAssay AID192 (DTP/NCI, 2004)
